Results as given in the supplement of paper PMC8728848.
Some of the results follow.

Tests used:
Experiment in all cases: glycan array binding signal (z-score within array); higher = stronger binding
Conditions in all cases: glycan notation: IUPAC condensed, linker removed
Neu5Ac(a2-6)Gal = molecular target: Neu5Ac(a2-6)Gal
In short: (§1)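 Columns mapping to the same glycan were averaged after glycan names were converted to IUPAC-condensed notation. The data come from 3228 arrays in the Consortium for Functional Glycomics database, limited to those with an available protein sequence. Binding is reported as a within-array Z-score averaged across arrays of one protein sequence and across linkers.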

[1] = molecular target: Neu5Ac(a2-6)Gal(b1-3)GlcNAc(b1-3)[Gal(b1-4)GlcNAc(b1-6)]Gal(b1-4)Glc
In short: as §1

Neu5Ac(a2-6)Gal(b1-4)Glc = molecular target: Neu5Ac(a2-6)Gal(b1-4)Glc
In short: as §1

[2] = molecular target: Neu5Ac(a2-6)Gal(b1-4)GlcNAc
In short: as §1

[3] = molecular target: Neu5Ac(a2-6)Gal(b1-4)GlcNAc(b1-2)Man
In short: as §1

[4] = molecular target: Neu5Ac(a2-6)Gal(b1-4)GlcNAc(b1-2)Man(a1-3)Man(b1-4)GlcNAc(b1-4)GlcNAc
In short: as §1

[5] = molecular target: Neu5Ac(a2-6)Gal(b1-4)GlcNAc(b1-2)Man(a1-3)[Gal(b1-4)GlcNAc(b1-2)Man(a1-6)]Man(b1-4)GlcNAc(b1-4)GlcNAc
In short: as §1

[6] = molecular target: Neu5Ac(a2-6)Gal(b1-4)GlcNAc(b1-2)Man(a1-3)[GlcNAc(b1-2)Man(a1-6)]Man(b1-4)GlcNAc(b1-4)GlcNAc
In short: as §1

[7] = molecular target: Neu5Ac(a2-6)Gal(b1-4)GlcNAc(b1-2)Man(a1-3)[GlcNAc(b1-2)Man(b1-4)GlcNAc(b1-2)Man(a1-6)]Man(b1-4)GlcNAc(b1-4)GlcNAc
In short: as §1

[8] = molecular target: Neu5Ac(a2-6)Gal(b1-4)GlcNAc(b1-2)Man(a1-3)[GlcNAc(b1-4)][Neu5Ac(a2-6)Gal(b1-4)GlcNAc(b1-2)Man(a1-6)]Man(b1-4)GlcNAc(b1-4)GlcNAc
In short: as §1

[9] = molecular target: Neu5Ac(a2-6)Gal(b1-4)GlcNAc(b1-2)Man(a1-3)[Man(a1-6)]Man(b1-4)GlcNAc(b1-4)GlcNAc
In short: as §1

[10] = molecular target: Neu5Ac(a2-6)Gal(b1-4)GlcNAc(b1-2)Man(a1-3)[Neu5Ac(a2-3)Gal(b1-4)GlcNAc(b1-2)Man(a1-6)]Man(b1-4)GlcNAc(b1-4)GlcNAc
In short: as §1

[11] = molecular target: Neu5Ac(a2-6)Gal(b1-4)GlcNAc(b1-2)Man(a1-3)[Neu5Ac(a2-6)Gal(b1-4)GlcNAc(b1-2)Man(a1-6)]Man(b1-4)GlcNAc(b1-4)GlcNAc
In short: as §1

[12] = molecular target: Neu5Ac(a2-6)Gal(b1-4)GlcNAc(b1-2)Man(a1-3)[Neu5Ac(a2-6)Gal(b1-4)GlcNAc(b1-2)Man(a1-6)]Man(b1-4)GlcNAc(b1-4)[Fuc(a1-6)]GlcNAc
In short: as §1

[13] = molecular target: Neu5Ac(a2-6)Gal(b1-4)GlcNAc(b1-2)Man(a1-6)Man(b1-4)GlcNAc(b1-4)GlcNAc
In short: as §1

[14] = molecular target: Neu5Ac(a2-6)Gal(b1-4)GlcNAc(b1-2)Man(a1-6)[Gal(b1-4)GlcNAc(b1-2)Man(a1-3)]Man(b1-4)GlcNAc(b1-4)GlcNAc
In short: as §1

[15] = molecular target: Neu5Ac(a2-6)Gal(b1-4)GlcNAc(b1-2)Man(a1-6)[GlcNAc(b1-2)Man(a1-3)]Man(b1-4)GlcNAc(b1-4)GlcNAc
In short: as §1

[16] = molecular target: Neu5Ac(a2-6)Gal(b1-4)GlcNAc(b1-2)Man(a1-6)[Man(a1-3)]Man(b1-4)GlcNAc(b1-4)GlcNAc
In short: as §1

[17] = molecular target: Neu5Ac(a2-6)Gal(b1-4)GlcNAc(b1-2)[Neu5Ac(a2-6)Gal(b1-4)GlcNAc(b1-4)]Man(a1-3)[GlcNAc(b1-4)][Neu5Ac(a2-6)Gal(b1-4)GlcNAc(b1-2)[Neu5Ac(a2-6)Gal(b1-4)GlcNAc(b1-6)]Man(a1-6)]Man(b1-4)GlcNAc(b1-4)GlcNAc
In short: as §1

[18] = molecular target: Neu5Ac(a2-6)Gal(b1-4)GlcNAc(b1-2)[Neu5Ac(a2-6)Gal(b1-4)GlcNAc(b1-4)]Man(a1-3)[GlcNAc(b1-4)][Neu5Ac(a2-6)Gal(b1-4)GlcNAc(b1-4)Man(a1-6)]Man(b1-4)GlcNAc(b1-4)GlcNAc
In short: as §1

[19] = molecular target: Neu5Ac(a2-6)Gal(b1-4)GlcNAc(b1-2)[Neu5Ac(a2-6)Gal(b1-4)GlcNAc(b1-6)]Man(a1-6)[Neu5Ac(a2-6)Gal(b1-4)GlcNAc(b1-2)Man(a1-3)][GlcNAc(b1-4)]Man(b1-4)GlcNAc(b1-4)GlcNAc
In short: as §1

[20] = molecular target: Neu5Ac(a2-6)Gal(b1-4)GlcNAc(b1-3)Gal(b1-3)GlcNAc
In short: as §1

[21] = molecular target: Neu5Ac(a2-6)Gal(b1-4)GlcNAc(b1-3)Gal(b1-4)GlcNAc
In short: as §1

[22] = molecular target: Neu5Ac(a2-6)Gal(b1-4)GlcNAc(b1-3)Gal(b1-4)GlcNAc(b1-2)Man(a1-3)[Neu5Ac(a2-6)Gal(b1-4)GlcNAc(b1-3)Gal(b1-4)GlcNAc(b1-2)Man(a1-6)]GalNAc
In short: as §1

[23] = molecular target: Neu5Ac(a2-6)Gal(b1-4)GlcNAc(b1-3)Gal(b1-4)GlcNAc(b1-3)Gal(b1-4)GlcNAc
In short: as §1

[24] = molecular target: Neu5Ac(a2-6)Gal(b1-4)GlcNAc(b1-3)Gal(b1-4)GlcNAc(b1-3)Gal(b1-4)GlcNAc(b1-2)Man(a1-3)[Neu5Ac(a2-6)Gal(b1-4)GlcNAc(b1-3)Gal(b1-4)GlcNAc(b1-3)Gal(b1-4)GlcNAc(b1-2)Man(a1-6)]GalNAc
In short: as §1

[25] = molecular target: Neu5Ac(a2-6)Gal(b1-4)GlcNAc(b1-3)Gal(b1-4)GlcNAc(b1-3)GalNAc
In short: as §1

[26] = molecular target: Neu5Ac(a2-6)Gal(b1-4)GlcNAc(b1-3)Gal(b1-4)GlcNAc(b1-3)[Neu5Ac(a2-6)Gal(b1-4)GlcNAc(b1-3)Gal(b1-4)GlcNAc(b1-6)]GalNAc
In short: as §1

[27] = molecular target: Neu5Ac(a2-6)Gal(b1-4)GlcNAc(b1-3)Gal(b1-4)GlcNAc(b1-6)[Gal(b1-3)]GalNAc
In short: as §1

[28] = molecular target: Neu5Ac(a2-6)Gal(b1-4)GlcNAc(b1-3)Gal(b1-4)[Fuc(a1-3)]GlcNAc(b1-3)Gal(b1-4)[Fuc(a1-3)]GlcNAc
In short: as §1

[29] = molecular target: Neu5Ac(a2-6)Gal(b1-4)GlcNAc(b1-3)GalNAc
In short: as §1

[30] = molecular target: Neu5Ac(a2-6)Gal(b1-4)GlcNAc(b1-3)[Neu5Ac(a2-6)Gal(b1-4)GlcNAc(b1-6)]GalNAc
In short: as §1

[31] = molecular target: Neu5Ac(a2-6)Gal(b1-4)GlcNAc(b1-6)GalNAc
In short: as §1

[32] = molecular target: Neu5Ac(a2-6)Gal(b1-4)GlcNAc(b1-6)[Gal(b1-3)GlcNAc(b1-3)]Gal(b1-4)Glc
In short: as §1

[33] = molecular target: Neu5Ac(a2-6)Gal(b1-4)GlcNAc(b1-6)[Gal(b1-3)]GalNAc
In short: as §1

[34] = molecular target: Neu5Ac(a2-6)Gal(b1-4)GlcNAc6S
In short: as §1

Neu5Ac(a2-6)GalNAc = molecular target: Neu5Ac(a2-6)GalNAc
In short: as §1

[35] = molecular target: Neu5Ac(a2-6)GalNAc(b1-4)GlcNAc
In short: as §1

[36] = molecular target: Neu5Ac(a2-6)GalNAc(b1-4)GlcNAc6S
In short: as §1

[37] = molecular target: Neu5Ac(a2-6)GlcNAc(b1-4)GlcNAc
In short: as §1

[38] = molecular target: Neu5Ac(a2-6)GlcNAc(b1-4)GlcNAc(b1-4)GlcNAc
In short: as §1

Neu5Ac(a2-8)Neu5Ac = molecular target: Neu5Ac(a2-8)Neu5Ac
In short: as §1

[39] = molecular target: Neu5Ac(a2-8)Neu5Ac(a2-3)Gal(b1-3)GalNAc(b1-4)[Neu5Ac(a2-3)]Gal(b1-4)Glc
In short: as §1

[40] = molecular target: Neu5Ac(a2-8)Neu5Ac(a2-3)Gal(b1-3)GalNAc(b1-4)[Neu5Ac(a2-8)Neu5Ac(a2-3)]Gal(b1-4)Glc
In short: as §1

[41] = molecular target: Neu5Ac(a2-8)Neu5Ac(a2-3)Gal(b1-4)Glc
In short: as §1

B1: LlpA1 (Pseudomonas fluorescens), Q4KHC3 (protein)
chain: MGSSHHHHHHSSGLVPRGSHMAWIRYDFTDNGSSVLPARYYMAPNQYLQSPNKRFKLLFQADGNLALYDGAQLAWVADQNTPFTNVSKGNKKDPMMVFMNYGFVLDDPLRGRIWSTTPSDPTMGSREDASLRAFTQVQDDGNIVTVDTIPHWYAPNGRVFTPAVGAAMIIGGTTELVPGQFYSAGEHSLVFQGDGNLVVYGPNSSVIWATYTQNKGGVRCVMQEDGNLVIYAANNGVVWQSGTGGHPGATIRLQANGSFTIVTERPVWARFGYTPTIKPPRVFYPDHKWKTGSYTWNNVF
For B1, the “glycan array binding signal (z-score)” value (Neu5Ac(a2-6)Gal) was -0.771, the “glycan array binding signal (z-score)” value [1] was -0.201 and the “glycan array binding signal (z-score)” value (Neu5Ac(a2-6)Gal(b1-4)Glc) was 0.584. The “glycan array binding signal (z-score)” value [2] was -0.374, the “glycan array binding signal (z-score)” value [3] was -0.802 and the “glycan array binding signal (z-score)” value [4] was -0.561. For the same binder, the “glycan array binding signal (z-score)” value [5] was 0.164, the “glycan array binding signal (z-score)” value [6] was -0.477 and the “glycan array binding signal (z-score)” value [7] was 2.45. The “glycan array binding signal (z-score)” value [8] was -0.209, the “glycan array binding signal (z-score)” value [9] was 0.498 and the “glycan array binding signal (z-score)” value [10] was -0.556. For the same binder, the “glycan array binding signal (z-score)” value [11] was -0.374, the “glycan array binding signal (z-score)” value [12] was 0.195 and the “glycan array binding signal (z-score)” value [13] was -0.485. The “glycan array binding signal (z-score)” value [14] was 0.215, the “glycan array binding signal (z-score)” value [15] was -0.426 and the “glycan array binding signal (z-score)” value [16] was -0.409. The “glycan array binding signal (z-score)” value [17] was -0.098, the “glycan array binding signal (z-score)” value [18] was 0.31 and the “glycan array binding signal (z-score)” value [19] was -0.421. The “glycan array binding signal (z-score)” value [20] was -0.18, the “glycan array binding signal (z-score)” value [21] was -0.142 and the “glycan array binding signal (z-score)” value [22] was 0.362. For the same binder, the “glycan array binding signal (z-score)” value [23] was -0.579, the “glycan array binding signal (z-score)” value [24] was 1.28 and the “glycan array binding signal (z-score)” value [25] was -0.115. The “glycan array binding signal (z-score)” value [26] was 1.23, the “glycan array binding signal (z-score)” value [27] was -0.066 and the “glycan array binding signal (z-score)” value [28] was 0.034. For the same binder, the “glycan array binding signal (z-score)” value [29] was -0.041, the “glycan array binding signal (z-score)” value [30] was -0.053 and the “glycan array binding signal (z-score)” value [31] was 0.332. For the same binder, the “glycan array binding signal (z-score)” value [32] was 0.075, the “glycan array binding signal (z-score)” value [33] was 0.228 and the “glycan array binding signal (z-score)” value [34] was -0.671. For the same binder, the “glycan array binding signal (z-score)” value (Neu5Ac(a2-6)GalNAc) was -0.628, the “glycan array binding signal (z-score)” value [35] was -0.614 and the “glycan array binding signal (z-score)” value [36] was -0.028. For the same binder, the “glycan array binding signal (z-score)” value [37] was -0.611, the “glycan array binding signal (z-score)” value [38] was -0.526 and the “glycan array binding signal (z-score)” value (Neu5Ac(a2-8)Neu5Ac) was -0.263. For the same binder, the “glycan array binding signal (z-score)” value [39] was -0.693, the “glycan array binding signal (z-score)” value [40] was -0.003 and the “glycan array binding signal (z-score)” value [41] was 0.054.
